In the supplement of paper PMC12595434, “Development of retinoid nuclear receptor pathway antagonists through targeting aldehyde dehydrogenase 1A3” (iScience, 2025) one finds melting temperature shift data, which are given here for 18 targets.

Protein sequences, listed by entry. Tags and fused reporters are not part of them. Lines headed by an entry give the natural chain unless they say otherwise; changes in a name come on top.
UniProt P16885: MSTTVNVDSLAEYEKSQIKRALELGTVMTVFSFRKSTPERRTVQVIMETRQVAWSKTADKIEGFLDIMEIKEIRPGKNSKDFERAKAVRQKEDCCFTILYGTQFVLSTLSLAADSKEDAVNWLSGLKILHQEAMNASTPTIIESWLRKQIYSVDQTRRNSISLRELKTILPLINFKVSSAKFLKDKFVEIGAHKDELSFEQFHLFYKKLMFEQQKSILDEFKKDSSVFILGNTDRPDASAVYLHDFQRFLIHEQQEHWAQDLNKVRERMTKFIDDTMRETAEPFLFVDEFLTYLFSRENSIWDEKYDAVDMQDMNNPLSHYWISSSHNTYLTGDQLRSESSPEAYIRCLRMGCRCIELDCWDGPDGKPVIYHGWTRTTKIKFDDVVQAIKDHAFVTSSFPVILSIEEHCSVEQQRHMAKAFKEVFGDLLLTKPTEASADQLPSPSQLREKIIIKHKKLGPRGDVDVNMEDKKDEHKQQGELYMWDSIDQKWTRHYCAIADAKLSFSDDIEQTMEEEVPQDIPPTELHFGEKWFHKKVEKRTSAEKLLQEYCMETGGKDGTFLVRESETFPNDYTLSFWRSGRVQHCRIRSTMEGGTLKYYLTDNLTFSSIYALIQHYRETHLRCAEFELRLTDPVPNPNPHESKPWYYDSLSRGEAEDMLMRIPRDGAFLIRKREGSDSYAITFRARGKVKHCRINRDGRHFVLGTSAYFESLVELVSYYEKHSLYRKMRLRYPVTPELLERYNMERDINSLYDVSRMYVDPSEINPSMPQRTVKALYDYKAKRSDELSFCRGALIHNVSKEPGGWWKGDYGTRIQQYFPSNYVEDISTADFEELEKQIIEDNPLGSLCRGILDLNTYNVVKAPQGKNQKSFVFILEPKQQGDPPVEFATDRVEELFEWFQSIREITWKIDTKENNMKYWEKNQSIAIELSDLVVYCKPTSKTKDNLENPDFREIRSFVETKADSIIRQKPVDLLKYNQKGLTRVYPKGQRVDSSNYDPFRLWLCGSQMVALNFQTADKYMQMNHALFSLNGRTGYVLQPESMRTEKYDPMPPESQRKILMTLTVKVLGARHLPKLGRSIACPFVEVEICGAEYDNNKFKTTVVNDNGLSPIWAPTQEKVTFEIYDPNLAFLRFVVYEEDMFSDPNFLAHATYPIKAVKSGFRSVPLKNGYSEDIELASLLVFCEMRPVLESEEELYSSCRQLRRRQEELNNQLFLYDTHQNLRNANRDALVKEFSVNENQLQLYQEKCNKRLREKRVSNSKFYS
UniProt P07910: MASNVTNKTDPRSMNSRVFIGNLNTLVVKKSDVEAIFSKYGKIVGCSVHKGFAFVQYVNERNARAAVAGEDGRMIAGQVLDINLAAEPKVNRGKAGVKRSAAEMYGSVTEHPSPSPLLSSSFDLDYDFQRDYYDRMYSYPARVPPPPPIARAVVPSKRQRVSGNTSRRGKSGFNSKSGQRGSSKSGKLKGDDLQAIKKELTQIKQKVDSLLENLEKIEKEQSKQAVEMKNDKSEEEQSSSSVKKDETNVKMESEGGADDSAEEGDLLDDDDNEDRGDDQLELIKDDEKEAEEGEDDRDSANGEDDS
UniProt P16152: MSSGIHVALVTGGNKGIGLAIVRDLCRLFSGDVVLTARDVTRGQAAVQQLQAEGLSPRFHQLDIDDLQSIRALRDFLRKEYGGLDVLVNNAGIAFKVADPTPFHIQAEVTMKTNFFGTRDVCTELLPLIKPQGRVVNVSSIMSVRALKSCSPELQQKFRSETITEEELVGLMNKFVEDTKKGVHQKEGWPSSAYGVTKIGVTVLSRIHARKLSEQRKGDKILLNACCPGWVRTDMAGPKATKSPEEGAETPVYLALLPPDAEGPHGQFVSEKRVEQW
UniProt P08240: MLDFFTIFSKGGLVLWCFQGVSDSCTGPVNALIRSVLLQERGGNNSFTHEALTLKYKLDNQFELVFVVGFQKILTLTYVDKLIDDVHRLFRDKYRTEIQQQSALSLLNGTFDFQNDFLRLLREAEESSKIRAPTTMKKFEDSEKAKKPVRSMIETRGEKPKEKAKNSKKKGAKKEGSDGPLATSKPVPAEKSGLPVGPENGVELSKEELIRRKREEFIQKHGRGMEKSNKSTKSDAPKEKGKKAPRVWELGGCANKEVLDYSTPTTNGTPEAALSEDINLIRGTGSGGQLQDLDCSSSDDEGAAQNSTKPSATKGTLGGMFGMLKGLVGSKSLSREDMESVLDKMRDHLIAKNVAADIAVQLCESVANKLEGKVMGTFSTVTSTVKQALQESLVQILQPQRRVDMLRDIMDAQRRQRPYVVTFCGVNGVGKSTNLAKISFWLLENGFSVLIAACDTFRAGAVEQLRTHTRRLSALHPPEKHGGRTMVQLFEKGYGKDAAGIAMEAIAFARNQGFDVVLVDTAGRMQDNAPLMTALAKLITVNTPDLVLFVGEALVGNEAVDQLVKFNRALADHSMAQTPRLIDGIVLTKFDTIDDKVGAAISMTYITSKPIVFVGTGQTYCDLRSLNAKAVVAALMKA
UniProt P11021: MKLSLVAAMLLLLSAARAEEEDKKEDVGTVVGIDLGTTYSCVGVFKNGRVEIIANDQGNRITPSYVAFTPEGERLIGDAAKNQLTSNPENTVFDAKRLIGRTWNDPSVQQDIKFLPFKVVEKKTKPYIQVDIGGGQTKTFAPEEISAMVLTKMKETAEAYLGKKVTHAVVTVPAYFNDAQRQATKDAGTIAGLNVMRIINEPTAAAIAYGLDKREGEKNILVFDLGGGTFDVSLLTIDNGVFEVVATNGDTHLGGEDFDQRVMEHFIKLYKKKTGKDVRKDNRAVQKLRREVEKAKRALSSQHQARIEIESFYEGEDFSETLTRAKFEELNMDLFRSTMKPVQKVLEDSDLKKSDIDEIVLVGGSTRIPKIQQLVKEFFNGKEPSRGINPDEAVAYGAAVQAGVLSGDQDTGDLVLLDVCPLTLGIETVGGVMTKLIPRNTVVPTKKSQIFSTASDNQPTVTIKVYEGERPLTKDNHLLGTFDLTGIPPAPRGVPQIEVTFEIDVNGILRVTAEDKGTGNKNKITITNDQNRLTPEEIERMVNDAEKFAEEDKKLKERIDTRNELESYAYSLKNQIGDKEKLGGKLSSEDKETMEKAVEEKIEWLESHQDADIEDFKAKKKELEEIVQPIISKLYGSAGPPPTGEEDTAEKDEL
UniProt P14735, whole entry: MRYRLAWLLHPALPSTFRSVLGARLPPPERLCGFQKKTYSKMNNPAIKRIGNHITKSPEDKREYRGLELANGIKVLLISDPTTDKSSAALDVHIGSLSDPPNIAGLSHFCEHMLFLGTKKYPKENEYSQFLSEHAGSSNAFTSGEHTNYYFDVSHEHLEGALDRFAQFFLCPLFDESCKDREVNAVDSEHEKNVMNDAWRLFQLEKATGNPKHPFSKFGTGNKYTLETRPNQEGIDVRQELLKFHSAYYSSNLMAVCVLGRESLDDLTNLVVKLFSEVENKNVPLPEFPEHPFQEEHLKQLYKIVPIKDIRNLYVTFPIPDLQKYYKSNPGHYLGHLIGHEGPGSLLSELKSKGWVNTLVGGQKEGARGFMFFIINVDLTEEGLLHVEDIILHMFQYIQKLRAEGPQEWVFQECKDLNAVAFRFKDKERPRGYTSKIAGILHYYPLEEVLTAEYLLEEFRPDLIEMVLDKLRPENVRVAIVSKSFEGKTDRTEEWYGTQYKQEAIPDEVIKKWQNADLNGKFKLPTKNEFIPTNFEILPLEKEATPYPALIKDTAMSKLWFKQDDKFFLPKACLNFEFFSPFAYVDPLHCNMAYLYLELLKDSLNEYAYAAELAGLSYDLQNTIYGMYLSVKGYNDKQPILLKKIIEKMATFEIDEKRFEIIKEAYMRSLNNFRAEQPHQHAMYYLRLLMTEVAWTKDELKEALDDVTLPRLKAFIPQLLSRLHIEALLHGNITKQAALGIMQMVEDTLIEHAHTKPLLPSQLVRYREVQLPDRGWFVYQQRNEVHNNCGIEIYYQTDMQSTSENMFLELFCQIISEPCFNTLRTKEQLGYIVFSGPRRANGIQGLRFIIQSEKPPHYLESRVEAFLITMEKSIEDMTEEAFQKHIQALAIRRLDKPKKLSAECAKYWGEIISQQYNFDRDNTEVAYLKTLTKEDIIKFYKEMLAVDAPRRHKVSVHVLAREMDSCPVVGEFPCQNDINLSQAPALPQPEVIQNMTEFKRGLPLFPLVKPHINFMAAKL
UniProt P17987, whole entry: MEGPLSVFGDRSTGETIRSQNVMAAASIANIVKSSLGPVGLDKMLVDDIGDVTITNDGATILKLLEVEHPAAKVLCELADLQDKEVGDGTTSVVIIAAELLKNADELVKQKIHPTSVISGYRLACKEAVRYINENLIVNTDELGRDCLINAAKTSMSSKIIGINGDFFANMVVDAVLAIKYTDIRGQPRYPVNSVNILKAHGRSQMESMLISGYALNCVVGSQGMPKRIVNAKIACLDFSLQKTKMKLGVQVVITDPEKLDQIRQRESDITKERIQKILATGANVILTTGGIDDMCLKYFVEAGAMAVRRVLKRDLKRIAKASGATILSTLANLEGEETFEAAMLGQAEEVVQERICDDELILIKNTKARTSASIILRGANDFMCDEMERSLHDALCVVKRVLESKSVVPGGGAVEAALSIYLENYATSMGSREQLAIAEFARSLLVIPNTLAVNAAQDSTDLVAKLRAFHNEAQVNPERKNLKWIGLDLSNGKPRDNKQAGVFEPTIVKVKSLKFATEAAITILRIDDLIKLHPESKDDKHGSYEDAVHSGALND
UniProt P09661: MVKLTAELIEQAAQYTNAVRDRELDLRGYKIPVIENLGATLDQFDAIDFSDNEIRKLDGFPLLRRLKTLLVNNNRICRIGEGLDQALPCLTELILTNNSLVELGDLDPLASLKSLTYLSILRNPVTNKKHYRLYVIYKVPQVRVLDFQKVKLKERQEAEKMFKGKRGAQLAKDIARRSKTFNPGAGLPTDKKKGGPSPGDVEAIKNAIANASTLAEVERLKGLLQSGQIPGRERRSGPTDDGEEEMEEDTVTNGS
UniProt P17655: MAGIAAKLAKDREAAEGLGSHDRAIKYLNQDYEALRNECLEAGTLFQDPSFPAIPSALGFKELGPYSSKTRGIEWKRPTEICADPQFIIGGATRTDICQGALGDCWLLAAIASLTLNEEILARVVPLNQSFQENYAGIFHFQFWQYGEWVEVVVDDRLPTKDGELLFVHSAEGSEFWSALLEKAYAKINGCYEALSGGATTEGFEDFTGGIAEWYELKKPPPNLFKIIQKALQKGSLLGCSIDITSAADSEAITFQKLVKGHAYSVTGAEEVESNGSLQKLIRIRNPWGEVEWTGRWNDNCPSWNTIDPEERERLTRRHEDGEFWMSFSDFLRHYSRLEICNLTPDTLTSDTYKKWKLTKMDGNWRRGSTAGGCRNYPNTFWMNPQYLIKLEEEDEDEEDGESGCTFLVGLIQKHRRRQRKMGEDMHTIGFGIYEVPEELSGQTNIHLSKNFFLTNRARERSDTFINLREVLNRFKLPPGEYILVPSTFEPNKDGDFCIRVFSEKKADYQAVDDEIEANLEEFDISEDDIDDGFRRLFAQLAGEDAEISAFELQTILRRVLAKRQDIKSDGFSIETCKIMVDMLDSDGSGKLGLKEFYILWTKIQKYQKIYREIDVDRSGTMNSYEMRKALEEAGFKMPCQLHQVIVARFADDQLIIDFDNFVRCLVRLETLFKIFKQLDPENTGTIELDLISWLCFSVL
UniProt P11217: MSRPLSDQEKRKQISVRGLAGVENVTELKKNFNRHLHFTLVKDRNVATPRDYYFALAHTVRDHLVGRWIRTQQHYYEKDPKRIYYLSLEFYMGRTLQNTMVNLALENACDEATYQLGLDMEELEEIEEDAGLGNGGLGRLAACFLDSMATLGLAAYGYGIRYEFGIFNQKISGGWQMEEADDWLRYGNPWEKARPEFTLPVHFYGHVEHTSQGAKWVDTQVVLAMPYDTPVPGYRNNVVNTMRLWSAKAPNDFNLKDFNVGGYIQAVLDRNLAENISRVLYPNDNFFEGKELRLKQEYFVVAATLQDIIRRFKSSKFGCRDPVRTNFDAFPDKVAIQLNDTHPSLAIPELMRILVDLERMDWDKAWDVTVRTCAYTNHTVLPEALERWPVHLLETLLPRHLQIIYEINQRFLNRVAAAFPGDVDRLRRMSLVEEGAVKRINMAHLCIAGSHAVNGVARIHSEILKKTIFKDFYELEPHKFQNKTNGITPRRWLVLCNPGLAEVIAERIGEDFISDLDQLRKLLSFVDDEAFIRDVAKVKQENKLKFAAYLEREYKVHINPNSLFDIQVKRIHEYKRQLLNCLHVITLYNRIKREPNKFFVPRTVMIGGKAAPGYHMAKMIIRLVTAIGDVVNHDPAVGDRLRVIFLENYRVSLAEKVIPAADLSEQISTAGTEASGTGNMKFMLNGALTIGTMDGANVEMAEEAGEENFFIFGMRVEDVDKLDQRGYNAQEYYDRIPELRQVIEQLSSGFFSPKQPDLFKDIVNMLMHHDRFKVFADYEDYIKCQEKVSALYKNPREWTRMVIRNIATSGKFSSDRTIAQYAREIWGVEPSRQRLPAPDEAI

This is one part of the list. The data scatter; read single values as rough.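 Tm was set to 64 °C where no melting was found, and many curves are irregular.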

Compound in this test: CCc1cnccc1C(=O)Nc1cc2c(cc1F)NC(=O)CC2
The experiment in a line: melting temperature shift (DMSO Tm minus MBE1-treated Tm) in cellular thermal proteome profiling; higher = less thermal stabilization by MBE1 (negative = stabilized by MBE1). The settings on record: A375; MBE1 concentration: 100 nM.
Regarding XRCC5 (UniProt P13010), the melting temperature shift was -0.275 °C.

On to EEF2 (UniProt P13639), for which the melting temperature shift is -0.824 °C.

For ARAF (UniProt P10398), the melting temperature shift was 2.67 °C.

For the target UniProt P16885, the melting temperature shift was -1.33 °C.

Take HNRNPC (UniProt P07910): the melting temperature shift is 0.354 °C.

Turning to CBR1 (UniProt P16152), the melting temperature shift was -0.778 °C.

For the target RPS17 (UniProt P08708), the melting temperature shift is -0.281 °C.

Regarding SRPRA (UniProt P08240), the melting temperature shift amounted to 0.495 °C.

In the case of HSPA5 (UniProt P11021), the melting temperature shift was -1.89 °C.

Turning to UniProt P19419, the melting temperature shift is -0.784 °C.

For IDE (UniProt P14735), the melting temperature shift came out at 0.708 °C.

Consider UniProt P16220, for which the melting temperature shift turned out to be 2.07 °C.

Consider TCP1 (UniProt P17987), for which the melting temperature shift was -0.782 °C.

For the target SNRPA1 (UniProt P09661), the melting temperature shift is -0.852 °C.

For the target UniProt P13612, the melting temperature shift is -3.2 °C.

UniProt P17066: the melting temperature shift was -2.41 °C.

CAPN2 (UniProt P17655): the melting temperature shift is -0.916 °C.

On to UniProt P11217, for which the melting temperature shift is -0.651 °C.
